Laboratory results: PubChem BioAssay AID504791 (Drosophila RNAi Screening Center, 2011)

Test: 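Genes whose knock-down strengthens or weakens small-RNA reporter silencing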 (primary screen)
Cells: Drosophila S2-derived reporter cells
Knock-down reagent: long dsRNA against Drosophila genes, about 150-250 ng dsRNA per well (siRNA assay); about 80-120 ng (miRNA assay)
Time to read-out: about 5 days (siRNA assay); about 4 days (miRNA assay)
Treatment: copper sulfate induction of reporters: 25 µM (siRNA assay); 200 mM stated (miRNA assay), 1-2 days before reading
Measured: 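Per-well ratio of Renilla over firefly light, expressed relative to that plate's average ratio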
Direction: siRNA reporter hit score: higher = 3 marks a strong hit with raised ratio; -3 a strong hit with lowered ratio
Rule for the call: 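a well was a first-pass pick when its plate-scaled ratio rose above 1.5 (siRNA assay) or 1.6 (miRNA assay), or dropped below 0.6; a gene counted only if two separate dsRNAs agreed on retest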
In all, the deposit lists about 23,000 reagents; shown is a random part of those that have a named target and a result. In the full data, 199 (0.86%) got an active call. 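Plate-scaled ratios behind the calls are not deposited; printed light signals are raw; many rows marked increased or decreased are still called inactive.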 Further read-outs or replicates are left out here.

siRNA reporter hit score	miRNA reporter change	stable assay Renilla, run 1 (luminescence)	Outcome	target	amplicon
		9202	inactive	SMC5 (Structural maintenance of chromosomes 5)	DRSC11849
		5987	inactive	fan (farinelli)	DRSC10930
		4772	inactive	fliI (flightless I)	DRSC20578
		6148	inactive	Src64B (Src oncogene at 64B)	DRSC08700
		7287	inactive	Mdh1 (retired record)	DRSC02846
		6919	inactive	CG12301	DRSC09875
		6064	inactive	CG5934	DRSC15922
		5816	inactive	CG13116	DRSC02214
		8307	inactive	CG13116	DRSC21945
		5795	inactive	Ilp3 (Insulin-like peptide 3)	DRSC10168
		6850	inactive	RyR (Ryanodine receptor)	DRSC07543
		5476	inactive	CG31141	DRSC13646
		11324	inactive	Nup358 (Nucleoporin 358kD)	DRSC14410
		5019	inactive	CG8191	DRSC20091
		7123	inactive	CG12880	DRSC14568
		5222	inactive	dpr12 (defective proboscis extension response 12)	DRSC04814
		6751	inactive	dpr12 (defective proboscis extension response 12)	DRSC04863
		8066	inactive	dpr12 (defective proboscis extension response 12)	DRSC04892
	reporter ratio raised past the hit cutoff	50540	inactive	pio (piopio)	DRSC04386
		5076	inactive	CG1909	DRSC17150
		4867	inactive	RpL7A (Ribosomal protein L7A)	DRSC18709
		7246	inactive	CAH13 (Carbonic anhydrase 13)	DRSC06128
		3.06e5	inactive	CG2955	DRSC00552
		8839	inactive	CG11837	DRSC14397
		7724	inactive	Cpr30F (Cuticular protein 30F)	DRSC02908
		6223	inactive	mRpL51 (mitochondrial ribosomal protein L51)	DRSC02200
		10813	inactive	Polr1F (RNA polymerase I subunit F)	DRSC02278
3		6912	inactive	Hsc70-2 (Heat shock protein 70 cognate 2)	DRSC16710
		6000	inactive	TrpRS (Tryptophanyl-tRNA synthetase)	DRSC14097
		5919	inactive	Adgf-E (Adenosine deaminase-related growth factor E)	DRSC05973
		7506	inactive	CG18269	DRSC02660
		5647	inactive	CG34331	DRSC20679
		7799	inactive	CG3984	DRSC15530
		6219	inactive	CG30196	DRSC04156

Reformatted: 2 of the entries above.
| siRNA reporter hit score | miRNA reporter change | stable assay Renilla, run 1 (luminescence) | Outcome | target | amplicon |
| --- | --- | --- | --- | --- | --- |
| – | – | 8839 | inactive | CG11837 | DRSC14397 |
| – | – | 7724 | inactive | Cpr30F (Cuticular protein 30F) | DRSC02908 |
